Experimental data reported in the supplement of paper PMC10849652.
Some of the results follow.

Amino acid sequences for entries named in this document (tags omitted). A change or cut given only in a name is not applied to a line headed by its entry.
UniProt Q6P996: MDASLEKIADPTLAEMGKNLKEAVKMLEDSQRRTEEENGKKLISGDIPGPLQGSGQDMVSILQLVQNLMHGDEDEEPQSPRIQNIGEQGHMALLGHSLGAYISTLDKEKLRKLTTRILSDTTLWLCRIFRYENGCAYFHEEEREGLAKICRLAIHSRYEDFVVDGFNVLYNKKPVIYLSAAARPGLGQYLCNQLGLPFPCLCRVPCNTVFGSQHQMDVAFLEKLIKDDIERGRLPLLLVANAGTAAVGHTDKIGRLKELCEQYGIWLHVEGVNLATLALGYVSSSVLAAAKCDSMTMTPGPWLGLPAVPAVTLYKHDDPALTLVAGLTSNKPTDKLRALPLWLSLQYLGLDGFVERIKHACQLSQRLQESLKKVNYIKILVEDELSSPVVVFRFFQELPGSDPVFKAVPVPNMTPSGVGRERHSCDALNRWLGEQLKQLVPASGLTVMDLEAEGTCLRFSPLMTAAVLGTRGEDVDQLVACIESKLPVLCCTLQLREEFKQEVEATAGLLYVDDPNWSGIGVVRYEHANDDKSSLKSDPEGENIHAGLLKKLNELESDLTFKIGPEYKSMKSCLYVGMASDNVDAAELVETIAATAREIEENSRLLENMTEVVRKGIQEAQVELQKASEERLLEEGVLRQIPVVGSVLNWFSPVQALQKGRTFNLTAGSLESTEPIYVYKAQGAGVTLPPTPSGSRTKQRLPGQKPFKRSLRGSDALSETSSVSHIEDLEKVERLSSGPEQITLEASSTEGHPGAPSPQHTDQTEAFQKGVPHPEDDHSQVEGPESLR
UniProt Q9H2J4: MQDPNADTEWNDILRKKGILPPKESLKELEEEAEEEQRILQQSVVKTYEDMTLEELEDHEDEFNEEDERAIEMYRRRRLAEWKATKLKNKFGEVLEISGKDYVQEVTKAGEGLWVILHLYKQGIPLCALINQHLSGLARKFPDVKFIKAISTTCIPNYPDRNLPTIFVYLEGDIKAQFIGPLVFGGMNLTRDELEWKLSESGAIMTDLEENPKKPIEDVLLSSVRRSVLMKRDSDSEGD
UniProt Q9HBH1: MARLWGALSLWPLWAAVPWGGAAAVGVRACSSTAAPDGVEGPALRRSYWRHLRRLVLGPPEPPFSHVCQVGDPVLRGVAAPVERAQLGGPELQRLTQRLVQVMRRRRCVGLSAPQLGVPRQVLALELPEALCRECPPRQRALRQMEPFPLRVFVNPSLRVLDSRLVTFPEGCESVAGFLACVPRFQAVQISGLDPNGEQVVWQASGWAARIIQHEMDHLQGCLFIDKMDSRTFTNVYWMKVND
UniProt Q6ZW49, whole entry, looked up: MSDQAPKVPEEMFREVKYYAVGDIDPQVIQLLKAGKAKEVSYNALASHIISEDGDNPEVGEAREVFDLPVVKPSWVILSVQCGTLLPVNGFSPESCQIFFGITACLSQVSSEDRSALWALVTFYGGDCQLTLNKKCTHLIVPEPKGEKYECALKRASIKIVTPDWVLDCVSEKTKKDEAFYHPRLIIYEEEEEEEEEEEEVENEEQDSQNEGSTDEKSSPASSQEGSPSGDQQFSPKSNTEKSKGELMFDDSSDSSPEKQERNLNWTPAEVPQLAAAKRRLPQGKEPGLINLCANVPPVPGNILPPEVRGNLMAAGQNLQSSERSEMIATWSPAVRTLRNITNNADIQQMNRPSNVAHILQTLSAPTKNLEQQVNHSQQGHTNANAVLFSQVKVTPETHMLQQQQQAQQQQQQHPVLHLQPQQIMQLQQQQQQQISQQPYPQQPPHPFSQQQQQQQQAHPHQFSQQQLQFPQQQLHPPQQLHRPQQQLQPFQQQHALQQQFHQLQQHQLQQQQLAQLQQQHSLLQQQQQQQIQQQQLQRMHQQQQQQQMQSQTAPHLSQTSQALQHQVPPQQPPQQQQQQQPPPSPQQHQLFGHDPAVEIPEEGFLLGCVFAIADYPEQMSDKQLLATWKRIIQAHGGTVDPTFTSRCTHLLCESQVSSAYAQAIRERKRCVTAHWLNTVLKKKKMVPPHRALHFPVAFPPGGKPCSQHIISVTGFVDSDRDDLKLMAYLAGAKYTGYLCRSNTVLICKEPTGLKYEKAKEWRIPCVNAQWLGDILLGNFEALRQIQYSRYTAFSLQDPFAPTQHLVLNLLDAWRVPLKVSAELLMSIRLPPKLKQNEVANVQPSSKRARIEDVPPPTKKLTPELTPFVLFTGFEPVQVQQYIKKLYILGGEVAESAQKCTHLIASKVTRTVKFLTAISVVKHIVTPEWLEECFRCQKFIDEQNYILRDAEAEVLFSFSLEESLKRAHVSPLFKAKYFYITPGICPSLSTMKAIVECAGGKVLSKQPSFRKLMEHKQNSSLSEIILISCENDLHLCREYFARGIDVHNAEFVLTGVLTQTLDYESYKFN
UniProt Q460N5, whole entry, looked up: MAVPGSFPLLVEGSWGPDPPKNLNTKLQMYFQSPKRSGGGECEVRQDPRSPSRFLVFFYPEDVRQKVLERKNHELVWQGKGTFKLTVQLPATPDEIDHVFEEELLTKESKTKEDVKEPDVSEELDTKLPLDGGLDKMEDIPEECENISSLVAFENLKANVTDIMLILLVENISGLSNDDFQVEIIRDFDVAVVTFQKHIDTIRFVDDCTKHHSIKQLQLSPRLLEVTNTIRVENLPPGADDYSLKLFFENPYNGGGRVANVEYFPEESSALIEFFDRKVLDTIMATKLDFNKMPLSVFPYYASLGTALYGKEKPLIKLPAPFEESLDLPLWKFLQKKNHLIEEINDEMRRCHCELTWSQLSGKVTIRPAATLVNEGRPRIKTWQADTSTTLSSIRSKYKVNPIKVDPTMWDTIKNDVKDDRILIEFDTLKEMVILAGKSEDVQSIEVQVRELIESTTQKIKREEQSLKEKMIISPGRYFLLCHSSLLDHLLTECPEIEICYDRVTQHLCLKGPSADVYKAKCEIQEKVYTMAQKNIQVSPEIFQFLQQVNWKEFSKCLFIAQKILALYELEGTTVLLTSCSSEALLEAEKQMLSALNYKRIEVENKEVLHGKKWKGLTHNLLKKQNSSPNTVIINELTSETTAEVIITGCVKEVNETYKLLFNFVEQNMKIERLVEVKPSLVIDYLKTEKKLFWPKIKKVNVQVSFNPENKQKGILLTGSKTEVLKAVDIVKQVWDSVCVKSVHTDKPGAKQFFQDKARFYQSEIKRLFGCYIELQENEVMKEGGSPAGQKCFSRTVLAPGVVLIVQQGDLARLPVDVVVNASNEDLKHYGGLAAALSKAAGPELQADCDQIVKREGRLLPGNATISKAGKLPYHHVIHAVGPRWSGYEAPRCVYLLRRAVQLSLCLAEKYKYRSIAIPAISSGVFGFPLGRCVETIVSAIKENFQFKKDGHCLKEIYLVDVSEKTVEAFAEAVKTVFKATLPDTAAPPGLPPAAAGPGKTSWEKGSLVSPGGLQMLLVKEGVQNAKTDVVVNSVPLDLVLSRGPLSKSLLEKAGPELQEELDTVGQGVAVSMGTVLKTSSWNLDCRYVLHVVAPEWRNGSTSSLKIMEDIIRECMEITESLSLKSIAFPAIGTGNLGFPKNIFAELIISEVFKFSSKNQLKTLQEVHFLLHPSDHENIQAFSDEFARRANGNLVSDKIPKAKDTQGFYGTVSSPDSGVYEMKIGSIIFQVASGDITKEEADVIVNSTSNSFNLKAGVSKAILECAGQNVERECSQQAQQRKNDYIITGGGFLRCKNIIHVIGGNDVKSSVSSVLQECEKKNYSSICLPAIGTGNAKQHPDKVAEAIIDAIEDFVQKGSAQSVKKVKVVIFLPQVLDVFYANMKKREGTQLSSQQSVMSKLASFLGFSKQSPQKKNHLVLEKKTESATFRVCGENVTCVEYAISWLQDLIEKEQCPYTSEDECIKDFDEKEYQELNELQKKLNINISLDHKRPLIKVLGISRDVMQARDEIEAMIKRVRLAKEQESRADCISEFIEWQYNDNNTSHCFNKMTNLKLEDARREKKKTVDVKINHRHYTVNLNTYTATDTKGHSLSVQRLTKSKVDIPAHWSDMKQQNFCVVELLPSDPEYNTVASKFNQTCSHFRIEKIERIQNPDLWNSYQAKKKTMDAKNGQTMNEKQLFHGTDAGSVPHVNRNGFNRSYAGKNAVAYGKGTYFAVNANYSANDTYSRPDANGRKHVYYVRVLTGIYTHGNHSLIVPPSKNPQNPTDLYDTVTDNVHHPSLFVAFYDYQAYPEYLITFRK
UniProt Q96GD0: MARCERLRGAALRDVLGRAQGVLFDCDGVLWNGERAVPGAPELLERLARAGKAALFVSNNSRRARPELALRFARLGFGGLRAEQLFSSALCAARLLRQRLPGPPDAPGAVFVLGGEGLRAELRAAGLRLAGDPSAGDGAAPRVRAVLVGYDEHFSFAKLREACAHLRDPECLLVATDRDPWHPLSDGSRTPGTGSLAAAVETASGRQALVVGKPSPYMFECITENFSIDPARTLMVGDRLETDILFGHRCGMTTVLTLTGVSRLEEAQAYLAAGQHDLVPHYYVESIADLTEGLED
UniProt Q6L8Q7: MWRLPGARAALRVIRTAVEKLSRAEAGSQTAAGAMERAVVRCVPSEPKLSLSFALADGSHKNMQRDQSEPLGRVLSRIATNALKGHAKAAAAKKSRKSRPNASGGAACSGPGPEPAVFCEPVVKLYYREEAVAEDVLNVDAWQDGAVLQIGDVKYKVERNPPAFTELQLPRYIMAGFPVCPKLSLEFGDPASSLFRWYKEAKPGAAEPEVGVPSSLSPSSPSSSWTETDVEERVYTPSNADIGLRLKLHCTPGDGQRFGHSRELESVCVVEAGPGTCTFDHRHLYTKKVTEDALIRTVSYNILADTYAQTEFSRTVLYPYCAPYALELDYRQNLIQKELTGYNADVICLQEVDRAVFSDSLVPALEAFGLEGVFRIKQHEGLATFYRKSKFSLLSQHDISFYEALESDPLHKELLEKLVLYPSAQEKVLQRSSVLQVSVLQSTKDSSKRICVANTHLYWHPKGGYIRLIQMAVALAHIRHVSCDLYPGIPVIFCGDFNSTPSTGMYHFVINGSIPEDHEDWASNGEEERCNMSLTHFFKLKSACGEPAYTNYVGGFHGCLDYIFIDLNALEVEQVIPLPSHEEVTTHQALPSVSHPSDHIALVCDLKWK
UniProt Q8N5Y8: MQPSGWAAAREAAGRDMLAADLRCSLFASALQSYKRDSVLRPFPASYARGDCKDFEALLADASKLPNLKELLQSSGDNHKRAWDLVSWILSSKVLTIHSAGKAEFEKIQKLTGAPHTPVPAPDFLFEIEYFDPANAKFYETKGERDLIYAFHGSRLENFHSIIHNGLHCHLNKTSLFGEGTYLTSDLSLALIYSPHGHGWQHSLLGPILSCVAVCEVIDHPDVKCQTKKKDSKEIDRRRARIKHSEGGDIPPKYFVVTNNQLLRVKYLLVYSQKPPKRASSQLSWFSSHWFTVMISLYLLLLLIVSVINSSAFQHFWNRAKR
UniProt Q8NCN5: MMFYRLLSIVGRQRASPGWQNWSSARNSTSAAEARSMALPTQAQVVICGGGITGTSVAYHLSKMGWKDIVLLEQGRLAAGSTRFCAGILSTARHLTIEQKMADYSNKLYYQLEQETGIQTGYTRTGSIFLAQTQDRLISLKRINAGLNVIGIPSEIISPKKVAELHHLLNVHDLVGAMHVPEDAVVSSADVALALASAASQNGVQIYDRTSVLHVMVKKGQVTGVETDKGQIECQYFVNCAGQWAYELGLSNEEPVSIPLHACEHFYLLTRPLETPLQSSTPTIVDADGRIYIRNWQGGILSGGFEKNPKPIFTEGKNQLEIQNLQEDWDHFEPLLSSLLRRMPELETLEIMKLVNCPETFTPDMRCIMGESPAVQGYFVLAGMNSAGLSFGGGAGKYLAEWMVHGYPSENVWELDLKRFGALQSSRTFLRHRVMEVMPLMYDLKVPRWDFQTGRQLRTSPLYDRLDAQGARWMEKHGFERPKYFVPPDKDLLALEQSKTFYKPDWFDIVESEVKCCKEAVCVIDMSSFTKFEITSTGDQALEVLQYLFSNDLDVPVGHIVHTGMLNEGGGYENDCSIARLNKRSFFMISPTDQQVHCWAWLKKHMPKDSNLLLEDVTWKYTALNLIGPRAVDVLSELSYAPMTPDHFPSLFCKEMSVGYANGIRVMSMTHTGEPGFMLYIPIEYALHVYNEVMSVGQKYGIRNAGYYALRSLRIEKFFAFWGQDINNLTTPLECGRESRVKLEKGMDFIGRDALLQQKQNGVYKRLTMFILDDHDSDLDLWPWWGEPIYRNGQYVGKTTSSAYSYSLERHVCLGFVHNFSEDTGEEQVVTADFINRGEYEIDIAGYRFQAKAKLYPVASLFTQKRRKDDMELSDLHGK
UniProt Q99471, whole entry, looked up: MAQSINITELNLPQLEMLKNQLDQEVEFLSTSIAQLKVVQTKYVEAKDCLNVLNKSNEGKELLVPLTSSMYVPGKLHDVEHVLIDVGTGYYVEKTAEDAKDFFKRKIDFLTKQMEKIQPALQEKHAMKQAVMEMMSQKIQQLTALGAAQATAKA
UniProt P61457: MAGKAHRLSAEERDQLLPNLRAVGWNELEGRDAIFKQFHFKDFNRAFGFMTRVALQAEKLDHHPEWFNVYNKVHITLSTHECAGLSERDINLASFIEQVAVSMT

compound: CC1=C(C=C(C=C1)NC(=O)C2=CC(=CC=C2)N(C)C)NC(=O)C3=CC=C(C=C3)O; assay: log2 fold change, soluble protein after heating vs DMSO (PISA); higher = thermal stabilisation; K562 lysate, 10 uM; active = over 0.2 and 3.5 SD of the protein, either way, in both replicates (recomputed)
Summary of the method: (§1)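 Following dounce homogenisation of K562 pellets in PBS pH 7.4 with 1 mM MgCl2, crude extract at 1 mg/mL protein was incubated for 30 min with 10 μM compound. Aliquots were then heated for 3 min over 48°C-58°C and pooled, NP-40 was added to 0.5% at 4°C, and soluble protein was recovered as the supernatant at 21,000xg for 90 min. Channel-sum-equalised TMTpro 16plex LC-MS/MS quantified this protein. Each value, from duplicates, is a log-two fold change in thermal stability relative to solvent controls.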

| Target | log2 fold change |
| --- | --- |
| PDXDC1 (UniProt Q6P996) | inactive: 0.024 |
| PDCL3 (UniProt Q9H2J4) | inactive: -0.002 |
| PDF (UniProt Q9HBH1) | inactive: -0.018 |
| PAXIP1 (UniProt Q6ZW49) | inactive: 0.007 |
| PARP14 (UniProt Q460N5) | inactive: 0.002 |
| PDXP (UniProt Q96GD0) | inactive: -0.04 |
| PDE12 (UniProt Q6L8Q7) | inactive: -0.05 |
| PARP16 isoform 3 (UniProt Q8N5Y8) | inactive: -0.012 |
| PFAS (UniProt O15067) | inactive: 0.032 |
| PDPR (UniProt Q8NCN5) | inactive: 0.003 |

compound: CC1=CC=C(C=C1)SC2=C3C=C(SC3=CN=C2)C(=O)N; assay: as above
Summary of the method: as §1

| Target | log2 fold change |
| --- | --- |
| PDCD2 (UniProt Q16342) | inactive: 0.012 |
| PGAM1 (UniProt P18669) | inactive: -0.034 |
| PDCD6IP isoform 2 (UniProt Q8WUM4) | inactive: 0.016 |
| PC (UniProt P11498) | inactive: 0.027 |
| PCBP2 isoform 3 (UniProt Q15366) | inactive: -0.017 |
| PCIF1 (UniProt Q9H4Z3) | inactive: -0.029 |
| PFDN6 (UniProt O15212) | inactive: 0.027 |
| PCYT1A (UniProt P49585) | inactive: -0.046 |
| PCBP3 (UniProt P57721) | inactive: -0.028 |
| PDS5B (UniProt Q9NTI5) | inactive: 0.014 |
| PEBP1 (UniProt P30086) | inactive: 0 |
| PAXX (UniProt Q9BUH6) | inactive: -0.035 |
| PFDN5 (UniProt Q99471) | inactive: 0.05 |
| PGAM5 (UniProt Q96HS1) | inactive: 0.016 |
| PEX11B (UniProt O96011) | inactive: -0.005 |
| PFKL isoform 2 (UniProt P17858) | inactive: 0.174 |
| PEPD (UniProt P12955) | inactive: -0.005 |

| Target | log2 fold change |
| --- | --- |
| PEX13 (UniProt Q92968) | inactive: -0.029 |
| PCBD1 (UniProt P61457) | inactive: -0.017 |
| PARN (UniProt O95453) | inactive: -0.004 |
| PARP2 (UniProt Q9UGN5) | inactive: -0.012 |
| PELP1 (UniProt Q8IZL8) | inactive: -0.013 |
| PDCD10 (UniProt Q9BUL8) | inactive: -0.02 |
| PDXDC1 (UniProt Q6P996) | inactive: 0.022 |
| PDCL3 (UniProt Q9H2J4) | inactive: -0.005 |
| PDF (UniProt Q9HBH1) | inactive: 0.059 |
| PAXIP1 (UniProt Q6ZW49) | inactive: 0.081 |
| PARP14 (UniProt Q460N5) | inactive: -0.135 |
| PDXP (UniProt Q96GD0) | inactive: -0.008 |
| PDE12 (UniProt Q6L8Q7) | inactive: -0.02 |
| PARP16 isoform 3 (UniProt Q8N5Y8) | inactive: 0.183 |
| PFAS (UniProt O15067) | inactive: 0.002 |
| PDPR (UniProt Q8NCN5) | inactive: -0.006 |

compound: CCCS(=O)(=O)Nc1ccc(F)c(C(=O)c2c[nH]c3ncc(-c4ccc(Cl)cc4)cc23)c1F [vemurafenib]; assay: as above
Summary of the method: as §1

| Target | log2 fold change |
| --- | --- |
| PDCD2 (UniProt Q16342) | inactive: 0.004 |
| PGAM1 (UniProt P18669) | inactive: -0.02 |
| PDCD6IP isoform 2 (UniProt Q8WUM4) | inactive: -0.018 |
| PC (UniProt P11498) | inactive: 0.051 |
| PCBP2 isoform 3 (UniProt Q15366) | inactive: -0.059 |
| PCIF1 (UniProt Q9H4Z3) | inactive: 0.03 |
| PFDN6 (UniProt O15212) | inactive: -0.028 |
| PCYT1A (UniProt P49585) | inactive: -0.02 |
| PCBP3 (UniProt P57721) | inactive: 0.021 |
| PDS5B (UniProt Q9NTI5) | inactive: 0.04 |
| PEBP1 (UniProt P30086) | inactive: -0.024 |
| PAXX (UniProt Q9BUH6) | inactive: 0.014 |
| PFDN5 (UniProt Q99471) | inactive: 0.026 |
| PGAM5 (UniProt Q96HS1) | inactive: 0.004 |
| PEX11B (UniProt O96011) | inactive: -0.012 |
| PFKL isoform 2 (UniProt P17858) | inactive: -0.022 |
| PEPD (UniProt P12955) | inactive: -0.034 |

| Target | log2 fold change |
| --- | --- |
| PEX13 (UniProt Q92968) | inactive: -0.042 |
| PCBD1 (UniProt P61457) | inactive: -0.002 |
| PARN (UniProt O95453) | inactive: -0.036 |
| PARP2 (UniProt Q9UGN5) | inactive: 0.011 |
| PELP1 (UniProt Q8IZL8) | inactive: -0.04 |
| PDCD10 (UniProt Q9BUL8) | inactive: -0.021 |
| PDXDC1 (UniProt Q6P996) | inactive: -0.005 |
| PDCL3 (UniProt Q9H2J4) | inactive: 0.052 |
| PDF (UniProt Q9HBH1) | inactive: -0.012 |
| PAXIP1 (UniProt Q6ZW49) | inactive: -0.036 |
| PARP14 (UniProt Q460N5) | inactive: 0.067 |
| PDXP (UniProt Q96GD0) | inactive: 0.009 |
| PDE12 (UniProt Q6L8Q7) | inactive: -0.008 |
| PARP16 isoform 3 (UniProt Q8N5Y8) | inactive: 0.087 |
| PFAS (UniProt O15067) | inactive: 0.029 |
| PDPR (UniProt Q8NCN5) | inactive: -0.013 |
